± gives the standard deviation of the averaged measurements. The reference is the same well before dosing, and untreated signal decays as well.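 Fibroblast labels name human fibroblasts: mostly primary ones from tissues such as uterus (C12385, HUF), lung (H6013), bone (Hs27A), adrenal (HADF) and skin (WS1), plus mammary HMF and breast cancer-associated Hs343T. The cancer cells are basal-like or mesenchymal-like triple-negative breast cancer lines. The paper calls a changed response a hit when it shifts by more than 3x the replicate standard deviation. The tissue of the other fibroblasts is not given here.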
Test system: HCC1143
Test: relative JC-1 red fluorescence (viability) vs pre-drug, coculture with fibroblast (fraction); higher = more viable cancer cells
Method: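 JC-1 labelled TNBC cells cocultured 1:1 (1,500 cells each) with CellTrace Violet stained primary or stromal fibroblasts in 384-well plates in FluoroBrite medium, treated with one of 42 anticancer drugs at 0.1, 1, 10 or 100 uM. JC-1 red fluorescence (mitochondrial integrity in cancer cells only) was read by plate reader every 8 h for 72 h. Values are normalised to each well's pre-drug value. The stock of one drug was tenfold lower, so its dose labels may be too high.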

C=C1C[C@@H]2[C@H](CC[C@]3(C)C(=O)CC[C@@H]23)[C@@]2(C)C=CC(=O)C=C12 [Exemestane]
relative JC-1 red fluorescence
Conditions	8 h	16 h	24 h	32 h	40 h	48 h	56 h	64 h	72 h
10 µM, coculture fibroblast: C12385	0.8707 ± 0.0024	0.802 ± 0.013	0.7473 ± 0.0014	0.683 ± 0.0035	0.609 ± 0.017	0.5751 ± 0.0042	0.533 ± 0.006	0.486 ± 0.013	0.47 ± 0.019
10 µM, coculture fibroblast: H6013	0.802 ± 0.03	0.724 ± 0.044	0.702 ± 0.066	0.708 ± 0.063	0.634 ± 0.077	0.626 ± 0.08	0.589 ± 0.092	0.564 ± 0.092	0.517 ± 0.098
10 µM, coculture fibroblast: H6019	0.8535 ± 0.0063	0.803 ± 0.013	0.769 ± 0.011	0.7249 ± 0.0054	0.6966 ± 0.0011	0.666 ± 0.026	0.623 ± 0.035	0.577 ± 0.038	0.535 ± 0.03
10 µM, coculture fibroblast: H6076	0.7983 ± 0.0057	0.792 ± 0.0082	0.751 ± 0.018	0.695 ± 0.032	0.661 ± 0.039	0.644 ± 0.04	0.619 ± 0.046	0.601 ± 0.041	0.611 ± 0.047
10 µM, coculture fibroblast: H6231	0.826 ± 0.042	0.924 ± 0.069	0.84 ± 0.075	0.632 ± 0.081	0.724 ± 0.12	0.673 ± 0.12	0.637 ± 0.12	0.584 ± 0.12	0.539 ± 0.11
10 µM, coculture fibroblast: HADF	0.807 ± 0.022	0.772 ± 0.035	0.757 ± 0.051	0.773 ± 0.055	0.717 ± 0.083	0.706 ± 0.083	0.678 ± 0.094	0.662 ± 0.1	0.634 ± 0.097
10 µM, coculture fibroblast: HCFa	0.805 ± 0.03	0.711 ± 0.034	0.679 ± 0.018	0.672 ± 0.034	0.577 ± 0.031	0.541 ± 0.027	0.484 ± 0.021	0.442 ± 0.034	0.406 ± 0.047
10 µM, coculture fibroblast: HCPF	0.8157 ± 0.004	0.854 ± 0.059	0.809 ± 0.037	0.679 ± 0.013	0.73 ± 0.037	0.694 ± 0.02	0.658 ± 0.024	0.613 ± 0.014	0.5829 ± 0.0044
10 µM, coculture fibroblast: HHSteC	0.8546 ± 0.005	0.771 ± 0.0034	0.746 ± 0.013	0.725 ± 0.027	0.638 ± 0.025	0.605 ± 0.028	0.553 ± 0.031	0.519 ± 0.025	0.479 ± 0.033
10 µM, coculture fibroblast: HMF	0.8 ± 0.0095	0.831 ± 0.05	0.783 ± 0.038	0.706 ± 0.016	0.701 ± 0.056	0.672 ± 0.05	0.619 ± 0.057	0.585 ± 0.039	0.559 ± 0.038
10 µM, coculture fibroblast: HPFa	0.9351 ± 0.0022	0.852 ± 0.022	0.812 ± 0.024	0.731 ± 0.025	0.656 ± 0.026	0.618 ± 0.033	0.551 ± 0.037	0.494 ± 0.042	0.434 ± 0.034
10 µM, coculture fibroblast: HUF	0.884 ± 0.023	0.814 ± 0.037	0.751 ± 0.022	0.682 ± 0.02	0.63 ± 0.014	0.5925 ± 0.00088	0.526 ± 0.0068	0.476 ± 0.029	0.44 ± 0.028
10 µM, coculture fibroblast: Hs5	0.861 ± 0.01	0.933 ± 0.0012	0.8867 ± 0.0066	0.82394 ± 0.00062	0.776 ± 0.018	0.732 ± 0.027	0.686 ± 0.019	0.642 ± 0.016	0.622 ± 0.0083
10 µM, coculture fibroblast: Hs27A	0.741 ± 0.012	0.6721 ± 0.0025	0.633 ± 0.0062	0.653 ± 0.02	0.537 ± 0.0099	0.521 ± 0.0071	0.4889 ± 0.0013	0.4612 ± 0.0019	0.457 ± 0.021
10 µM, coculture fibroblast: Hs343T	0.8381 ± 0.0036	0.929 ± 0.025	0.876 ± 0.016	0.751 ± 0.0095	0.7759 ± 0.0045	0.7209 ± 0.0025	0.656 ± 0.021	0.621 ± 0.028	0.576 ± 0.021
10 µM, coculture fibroblast: WS1	0.858 ± 0.04	0.773 ± 0.022	0.698 ± 0.017	0.6203 ± 0.0014	0.552 ± 0.013	0.5013 ± 0.0031	0.45 ± 0.016	0.398 ± 0.012	0.37 ± 0.015
100 µM, coculture fibroblast: C12385	0.842 ± 0.023	0.745 ± 0.051	0.692 ± 0.047	0.64 ± 0.059	0.585 ± 0.063	0.549 ± 0.064	0.519 ± 0.064	0.484 ± 0.057	0.468 ± 0.037
100 µM, coculture fibroblast: H6013	0.746 ± 0.053	0.663 ± 0.028	0.633 ± 0.018	0.628 ± 0.024	0.568 ± 0.05	0.557 ± 0.069	0.53 ± 0.073	0.518 ± 0.076	0.518 ± 0.049
100 µM, coculture fibroblast: H6019	0.8051 ± 0.0073	0.73 ± 0.041	0.693 ± 0.066	0.631 ± 0.073	0.594 ± 0.084	0.574 ± 0.089	0.535 ± 0.099	0.504 ± 0.11	0.478 ± 0.12
100 µM, coculture fibroblast: H6076	0.8138 ± 0.0065	0.786 ± 0.018	0.779 ± 0.044	0.781 ± 0.064	0.747 ± 0.056	0.751 ± 0.073	0.737 ± 0.071	0.73 ± 0.075	0.749 ± 0.079
100 µM, coculture fibroblast: H6231	0.8145 ± 0.0047	0.8434 ± 0.0038	0.78 ± 0.011	0.606 ± 0.052	0.683 ± 0.037	0.641 ± 0.035	0.588 ± 0.02	0.538 ± 0.02	0.506 ± 0.02
100 µM, coculture fibroblast: HADF	0.777 ± 0.0079	0.704 ± 0.0076	0.675 ± 0.015	0.696 ± 0.02	0.607 ± 0.037	0.583 ± 0.044	0.568 ± 0.047	0.547 ± 0.055	0.571 ± 0.061
100 µM, coculture fibroblast: HCFa	0.785 ± 0.0097	0.6904 ± 0.0045	0.647 ± 0.016	0.657 ± 0.017	0.559 ± 0.011	0.5353 ± 0.0024	0.498 ± 0.0084	0.4719 ± 0.0035	0.485 ± 0.0041
100 µM, coculture fibroblast: HCPF	0.8196 ± 0.0036	0.827 ± 0.02	0.813 ± 0.035	0.704 ± 0.0071	0.76 ± 0.045	0.734 ± 0.037	0.704 ± 0.054	0.672 ± 0.051	0.656 ± 0.053
100 µM, coculture fibroblast: HHSteC	0.843 ± 0.028	0.796 ± 0.032	0.763 ± 0.04	0.745 ± 0.044	0.677 ± 0.04	0.658 ± 0.033	0.621 ± 0.035	0.591 ± 0.044	0.56 ± 0.039
100 µM, coculture fibroblast: HMF	0.792 ± 0.017	0.775 ± 0.021	0.73 ± 0.034	0.685 ± 0.053	0.657 ± 0.049	0.649 ± 0.064	0.608 ± 0.074	0.589 ± 0.085	0.576 ± 0.077
100 µM, coculture fibroblast: HPFa	0.881 ± 0.022	0.8 ± 0.025	0.778 ± 0.028	0.713 ± 0.018	0.656 ± 0.023	0.628 ± 0.014	0.5637 ± 0.0036	0.517 ± 0.02	0.482 ± 0.025
100 µM, coculture fibroblast: HUF	0.8698 ± 0.0059	0.805 ± 0.043	0.753 ± 0.074	0.706 ± 0.082	0.669 ± 0.097	0.638 ± 0.1	0.577 ± 0.13	0.527 ± 0.14	0.494 ± 0.13
100 µM, coculture fibroblast: Hs5	0.83783 ± 0.0007	0.856 ± 0.016	0.8116 ± 0.0023	0.753 ± 0.013	0.682 ± 0.012	0.6346 ± 0.0013	0.584 ± 0.0073	0.554 ± 0.012	0.541 ± 0.022
100 µM, coculture fibroblast: Hs27A	0.732 ± 0.0075	0.636 ± 0.0075	0.593 ± 0.014	0.625 ± 0.012	0.4983 ± 0.003	0.4756 ± 0.0035	0.4577 ± 0.0015	0.437 ± 0.0035	0.478 ± 0.0096
100 µM, coculture fibroblast: Hs343T	0.831 ± 0.026	0.8386 ± 0.0034	0.801 ± 0.019	0.732 ± 0.037	0.706 ± 0.025	0.668 ± 0.034	0.61 ± 0.06	0.585 ± 0.083	0.554 ± 0.095
100 µM, coculture fibroblast: WS1	0.84 ± 0.0094	0.757 ± 0.0079	0.711 ± 0.013	0.651 ± 0.011	0.617 ± 0.021	0.588 ± 0.011	0.55 ± 0.029	0.508 ± 0.041	0.493 ± 0.037
